Measured data: PubChem BioAssay AID1259254 (NCATS, 2017)

- Assay: 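Finding genes that stop cells copying their DNA twice in one cycle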 (primary screen)
- System: human HCT116 colorectal cancer cells
- Reagents: single siRNA against human genes
- Duration: 3 days
- Detection: 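Nuclei stained with Hoechst and imaged; cell-cycle phase assigned by DNA content; G2 share scaled per plate, non-targeting siRNA 0%, GMNN siRNA 100%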
- Reading the numbers: G2 robust z-score and G2 cells, % of GMNN control: higher = more G2 cells, more excess DNA replication; raw share of cells in G2: higher = larger share of cells with G2 DNA content
- Active means: 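An siRNA counts as active if its G2 robust z-score lies at least 5 MADs above the screen median; here such calls match roughly 38% of GMNN control or more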
The deposit covers about 59,000 reagents; shown is a random part of them. About 1,550 of them (2.6%) count as active. 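G2 share is only a proxy for re-replication; each gene was hit by three separate siRNAs, and active genes were retested.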 The raw values are shown without normalisation. Entries without a mark were called inactive. The numbers tell different reagents against one gene apart. No sequences are given here. Not given: the amount of reagent.

target gene	reagent no.	G2 robust z-score	G2 cells, % of GMNN control	raw share of cells in G2 (%)
INAVA	1	-0.167	1.79	3.71
INAVA	2	1.17	11.2	8.83
INAVA	3	-0.119	2.13	5.02
SMCP	1	0.537	6.74	7.84
SMCP	2	-0.716	-2.07	3.4
SMCP	3	-0.528	-0.75	3.08
SPACA6	1	-1.14	-5.04	2.11
SPACA6	2	1.95	16.7	8.85
SPACA6	3	-0.452	-0.214	3.1
ZNF98	1	2.81	22.7	11.4
ZNF98	2	2.45	20.2	9.15
ZNF98	3	-0.503	-0.574	2.87
KLF9	1	-0.669	-1.74	2.77
KLF9	2	2.82	22.8	15.5
KLF9	3	1.95	16.7	9.17
LZTS2	1	-0.307	0.804	4.38
LZTS2	2	1.01	10.1	6.44
LZTS2	3	0.713	7.98	4.83
CHIT1	1	-0.357	0.452	4.25
CHIT1	2	0.446	6.1	7.22
CHIT1	3	2.87	23.2	13.2
CAPZA2	1	-0.471	-0.348	4.6
CAPZA2	2	-0.767	-2.43	4.21
CAPZA2	3	-0.63	-1.47	3.44
DHRS11	1	1.33	12.3	10.7
DHRS11	2	1.54	13.8	9.23
DHRS11	3	-0.556	-0.942	3.88
CYB5D2	1	-0.579	-1.11	3.65
CYB5D2	2	0.219	4.51	4.67
CYB5D2	3	-0.369	0.368	1.93
ARCN1	1	1.02	10.2	7.78
ARCN1	2	1.56	13.9	10
ARCN1	3	1.12	10.8	8.4
CNIH1	1	2.07	17.5	13.2
CNIH1	2	3.2	25.5	14.6
CNIH1	3	1.85	16	9.23
CYRIB	1	-1.05	-4.39	2.03
CYRIB	2	-0.888	-3.28	2.89
CYRIB	3	-0.355	0.466	3.35
LRRN1	1	3.64	28.6	14.6
LRRN1	2	3.64	28.5	17.5
LRRN1	3	0.227	4.56	5.96
SDCBP2	1	-0.272	1.05	4.26
SDCBP2	2	-1.08	-4.63	2.8
SDCBP2	3	-0.022	2.81	4.14
JPH4	1	-1.06	-4.51	2.61
JPH4	2	-0.524	-0.721	3.24
JPH4	3	1.85	16	7.26

A few values from above.
CAPZA2 #2, G2 cells, % of GMNN control: -2.43
For “G2 cells, % of GMNN control”, LRRN1 #3 reads 4.56
CYRIB #2, raw share of cells in G2 (%) = 2.89
For “G2 cells, % of GMNN control”, CYRIB #3 is entered as 0.466
For “G2 cells, % of GMNN control”, ZNF98 #3 has -0.574
For “raw share of cells in G2 (%)”, LZTS2 #3 is entered as 4.83
